Values from PubChem BioAssay AID1224830 (NIAID, 2016).
This is a random part of about 18,000 reagents tested. Of all reagents, about 2,900 (16%) got an active call. 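Calls are made per well; low scores hint the gene aids the LPS response, high scores that it dampens it.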 Repeated entries: four replicate wells of each siRNA pool.

- Test: 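Genes whose knock-down alters the TNF-alpha reporter response to LPS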 (primary screen)
- System: human THP-1 monocytic leukaemia cells, TNF dual-luciferase reporter clone, PMA-differentiated to macrophage-like cells
- Knock-down reagent: siRNA pool against human genes, 50 nM
- Duration: LPS for 4 h, given about 3 days after siRNA transfection
- Conditions: bacterial LPS (TLR4 ligand), 10 ng/ml
- Read-out: 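TNF firefly reporter luminescence divided by renilla, normalised to the plate median, then turned into a robust z-score for each replicate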
- Reading the numbers: TNF reporter robust z-score: higher = stronger TNF reporter response to LPS
- Rule for the call: 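a well is active when its z-score exceeds 2.8 or falls below -1.5; control wells carry no call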

gene knocked down	TNF reporter robust z-score	outcome
HSPA5 (GeneID 3309)	-1.43	inactive
HSPA5 (GeneID 3309)	-0.74	inactive
HSPA5 (GeneID 3309)	-1.58	active
HSPA5 (GeneID 3309)	-1.19	inactive
STARD3 (GeneID 10948)	1.91	inactive
STARD3 (GeneID 10948)	-0.32	inactive
STARD3 (GeneID 10948)	-0.07	inactive
STARD3 (GeneID 10948)	-0.09	inactive
SNTA1 (GeneID 6640)	-0.07	inactive
SNTA1 (GeneID 6640)	-0.06	inactive
SNTA1 (GeneID 6640)	-0.79	inactive
SNTA1 (GeneID 6640)	0.09	inactive
FIRRM (GeneID 55732)	0.47	inactive
FIRRM (GeneID 55732)	0.71	inactive
FIRRM (GeneID 55732)	-0.07	inactive
FIRRM (GeneID 55732)	-0.49	inactive
PSEN2 (GeneID 5664)	0.11	inactive
PSEN2 (GeneID 5664)	-0.65	inactive
PSEN2 (GeneID 5664)	0.28	inactive
PSEN2 (GeneID 5664)	-0.89	inactive
ABHD2 (GeneID 11057)	0.36	inactive
ABHD2 (GeneID 11057)	0.93	inactive
ABHD2 (GeneID 11057)	0.47	inactive
ABHD2 (GeneID 11057)	1.28	inactive
FAM13B (GeneID 51306)	-1.6	active
FAM13B (GeneID 51306)	0.53	inactive
FAM13B (GeneID 51306)	0.76	inactive
FAM13B (GeneID 51306)	-0.36	inactive
NOTCH4 (GeneID 4855)	-0.85	inactive
NOTCH4 (GeneID 4855)	-0.87	inactive
NOTCH4 (GeneID 4855)	-1.23	inactive
NOTCH4 (GeneID 4855)	0.09	inactive
OR13G1 (GeneID 441933)	0.31	inactive
OR13G1 (GeneID 441933)	0.1	inactive
OR13G1 (GeneID 441933)	-0.12	inactive
OR13G1 (GeneID 441933)	0.67	inactive
C19orf73 (GeneID 55150)	2.38	inactive
C19orf73 (GeneID 55150)	3.33	active
C19orf73 (GeneID 55150)	1.18	inactive
C19orf73 (GeneID 55150)	3.11	active
NUTF2 (GeneID 10204)	1.38	inactive
NUTF2 (GeneID 10204)	0.77	inactive
NUTF2 (GeneID 10204)	1.89	inactive
NUTF2 (GeneID 10204)	0.34	inactive
FAM135A (GeneID 57579)	-0.22	inactive
FAM135A (GeneID 57579)	-0.73	inactive
FAM135A (GeneID 57579)	-0.37	inactive
FAM135A (GeneID 57579)	-1.13	inactive
PRCP (GeneID 5547)	0.07	inactive
PRCP (GeneID 5547)	0.56	inactive
PRCP (GeneID 5547)	0.7	inactive
PRCP (GeneID 5547)	0.23	inactive
KLHL5 (GeneID 51088)	-0.77	inactive
KLHL5 (GeneID 51088)	-0.62	inactive
KLHL5 (GeneID 51088)	-0.94	inactive
KLHL5 (GeneID 51088)	-0.89	inactive
RPE (GeneID 6120)	-1.34	inactive
RPE (GeneID 6120)	-1.14	inactive
RPE (GeneID 6120)	-1.26	inactive
RPE (GeneID 6120)	-0.79	inactive
MEDAG (GeneID 84935)	-1.63	active
MEDAG (GeneID 84935)	-1.17	inactive
MEDAG (GeneID 84935)	-1.32	inactive
KY (GeneID 339855)	-0.45	inactive
KY (GeneID 339855)	-1.03	inactive
KY (GeneID 339855)	-0.69	inactive
KY (GeneID 339855)	-0.95	inactive
OR5K3 (GeneID 403277)	-0.8	inactive
OR5K3 (GeneID 403277)	0.05	inactive
OR5K3 (GeneID 403277)	-1.12	inactive
OR5K3 (GeneID 403277)	-1.11	inactive
ZNF875 (GeneID 284459)	-1.45	inactive
ZNF875 (GeneID 284459)	-1.52	active
ZNF875 (GeneID 284459)	-1.09	inactive
ZNF875 (GeneID 284459)	-1.31	inactive
PCDHGB3 (GeneID 56102)	0.73	inactive
PCDHGB3 (GeneID 56102)	0.84	inactive
PCDHGB3 (GeneID 56102)	-0.35	inactive
PCDHGB3 (GeneID 56102)	-0.03	inactive
PTPN21 (GeneID 11099)	0.01	inactive
PTPN21 (GeneID 11099)	0.81	inactive
PTPN21 (GeneID 11099)	2.2	inactive
PTPN21 (GeneID 11099)	1.05	inactive

In a second layout: entries from further up.
gene knocked down,TNF reporter robust z-score,outcome
FIRRM (GeneID 55732),-0.49,inactive
PSEN2 (GeneID 5664),0.11,inactive
PSEN2 (GeneID 5664),-0.65,inactive
PSEN2 (GeneID 5664),0.28,inactive
PSEN2 (GeneID 5664),-0.89,inactive
ABHD2 (GeneID 11057),0.36,inactive
ABHD2 (GeneID 11057),0.93,inactive
ABHD2 (GeneID 11057),0.47,inactive
ABHD2 (GeneID 11057),1.28,inactive
FAM13B (GeneID 51306),-1.6,active
FAM13B (GeneID 51306),0.53,inactive
FAM13B (GeneID 51306),0.76,inactive
FAM13B (GeneID 51306),-0.36,inactive
NOTCH4 (GeneID 4855),-0.85,inactive
NOTCH4 (GeneID 4855),-0.87,inactive
NOTCH4 (GeneID 4855),-1.23,inactive
NOTCH4 (GeneID 4855),0.09,inactive
OR13G1 (GeneID 441933),0.31,inactive
OR13G1 (GeneID 441933),0.1,inactive
OR13G1 (GeneID 441933),-0.12,inactive
OR13G1 (GeneID 441933),0.67,inactive

Additional reagents follow:
gene knocked down	TNF reporter robust z-score	outcome
RSPH14 (GeneID 27156)	-0.7	inactive
RSPH14 (GeneID 27156)	-0.64	inactive
RSPH14 (GeneID 27156)	-1.06	inactive
RSPH14 (GeneID 27156)	-0.36	inactive
ANTKMT (GeneID 65990)	1.73	inactive
ANTKMT (GeneID 65990)	4.65	active
ANTKMT (GeneID 65990)	3.25	active
ANTKMT (GeneID 65990)	1.55	inactive
CCDC89 (GeneID 220388)	-0.09	inactive
CCDC89 (GeneID 220388)	0.83	inactive
CCDC89 (GeneID 220388)	0.31	inactive
CCDC89 (GeneID 220388)	1.08	inactive
SLC45A3 (GeneID 85414)	1.12	inactive
SLC45A3 (GeneID 85414)	2.03	inactive
SLC45A3 (GeneID 85414)	1.7	inactive
SLC45A3 (GeneID 85414)	1.17	inactive
SLC39A5 (GeneID 283375)	0	inactive
SLC39A5 (GeneID 283375)	0.46	inactive
SLC39A5 (GeneID 283375)	-0.97	inactive
SLC39A5 (GeneID 283375)	-0.22	inactive
PXDC1 (GeneID 221749)	0.46	inactive
PXDC1 (GeneID 221749)	0.33	inactive
PXDC1 (GeneID 221749)	0.44	inactive
PXDC1 (GeneID 221749)	0.62	inactive
CZIB (GeneID 54987)	0.24	inactive
CZIB (GeneID 54987)	1.91	inactive
CZIB (GeneID 54987)	0.3	inactive
CZIB (GeneID 54987)	1.51	inactive
HK1 (GeneID 3098)	-0.42	inactive
HK1 (GeneID 3098)	-0.44	inactive
HK1 (GeneID 3098)	-0.69	inactive
HK1 (GeneID 3098)	-0.2	inactive
TRIM31 (GeneID 11074)	1.06	inactive
TRIM31 (GeneID 11074)	-0.05	inactive
TRIM31 (GeneID 11074)	0.46	inactive
TRIM31 (GeneID 11074)	-0.62	inactive
RAB39A (GeneID 54734)	0.85	inactive
RAB39A (GeneID 54734)	0.16	inactive
RAB39A (GeneID 54734)	0.05	inactive
RAB39A (GeneID 54734)	0.71	inactive
PDGFD (GeneID 80310)	-0.61	inactive
PDGFD (GeneID 80310)	-1.05	inactive
PDGFD (GeneID 80310)	-0.15	inactive
PDGFD (GeneID 80310)	-0.48	inactive
TRIM49B (GeneID 283116)	0.86	inactive
TRIM49B (GeneID 283116)	0.11	inactive
TRIM49B (GeneID 283116)	0.22	inactive
TRIM49B (GeneID 283116)	-0.77	inactive
PURB (GeneID 5814)	0.5	inactive
PURB (GeneID 5814)	1.17	inactive
PURB (GeneID 5814)	0.48	inactive
PURB (GeneID 5814)	0.68	inactive
SFRP4 (GeneID 6424)	0.03	inactive
SFRP4 (GeneID 6424)	1.08	inactive
SFRP4 (GeneID 6424)	-0.57	inactive
SFRP4 (GeneID 6424)	-0.15	inactive
MAGEA1 (GeneID 4100)	1.64	inactive
MAGEA1 (GeneID 4100)	2.31	inactive
MAGEA1 (GeneID 4100)	-1.11	inactive
MAGEA1 (GeneID 4100)	0.62	inactive
